Fewer than 10 of roughly 2,800 compounds were called active. Another 7% or so got no clear call; they are omitted. The call rests on the fitted dose curve; in most records, active means well fitted inhibition curve with a large enough effect; inconclusive means small, poorly fitted or top-dose-only effect; inactive means no such curve, though single readings can be large or run the other way. The list shows a part of the results.
target: Metallo-beta-lactamase type 2 (Klebsiella pneumoniae) (UniProt C7C422); assay: qHTS to identify inhibitors of the New Delhi Metallo-beta-lactamase (NDM): Nitrocefin screen against the machine-based learning selections.; further: % of control where 0% means no effect; settings: NDM-1 enzyme, nitrocefin hydrolysis, absorbance 485 nm; activity, negative = inhibition: at the top concentration
Method in brief: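 Hydrolysis by 2 nM NDM-1 was followed by absorbance after >30 min compound preincubation in HEPES pH 7.0 buffer with 1 uM Zn2SO4. For nitrocefin (16.7 uM, 15 min, 485 nm) and meropenem (50 uM, 30 min, 300 nm), each substrate ran on separate plates.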

By UniProt entry, the sequences of proteins in these tests, tags left out. Where a name states a change or a piece, a line headed by the entry shows the natural chain unless it says otherwise.
UniProt C7C422: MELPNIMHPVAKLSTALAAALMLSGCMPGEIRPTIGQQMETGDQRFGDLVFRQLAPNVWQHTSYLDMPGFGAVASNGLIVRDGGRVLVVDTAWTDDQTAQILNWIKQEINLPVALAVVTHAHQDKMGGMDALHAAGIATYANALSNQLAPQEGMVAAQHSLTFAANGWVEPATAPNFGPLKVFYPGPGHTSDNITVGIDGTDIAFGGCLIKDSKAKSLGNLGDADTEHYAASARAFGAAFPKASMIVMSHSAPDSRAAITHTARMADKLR

SMILES | activity, negative = inhibition
COCc1cn(C[C@H]2C[C@@H](NS(=O)(=O)c3ccccc3)[C@H](O)[C@@H]2O)nn1 | inactive: -3.02% [at 57.5 µM]
O=C(N[C@H]1CCN2C(=O)c3ccc(Cl)cc3NC(=O)[C@H]12)c1cccs1 | inactive: 1.41% [at 57.5 µM]
CCN1C(=O)Cc2cc(C(=O)NCc3cc(OC)ccc3OC)ccc21 | inactive: -0.713%
COc1ccc(-c2ccc3ncc(Nc4ccc(C(N)=O)cc4)n3n2)cn1 | inactive: -8.61% [at 57.5 µM]
COc1ccc(CN2CCC[C@H]2c2nc(-c3ccc(N(C)C)nc3)no2)c(O)c1 | inactive: 0.0487% [at 57.5 µM]
CC(=O)N1CCC(N[C@@H]2CO[C@H](CNC(=O)c3ccccc3)[C@H]2O)CC1 | inactive: 3.48% [at 57.5 µM]
Oc1cccc(-c2cc(-c3ccncc3)c3cncn3c2)c1 | inactive: -12.6% [at 76.7 µM]
COc1cccc(NC(=O)N2CCN3C(=O)N(Cc4ccc(C)cc4)C[C@H]3C2)c1 | inactive: 1.56% [at 57.5 µM]
CN(C)CCCNC(=O)C1CCCN(S(=O)(=O)c2ccccc2)CCC(=O)NCC1 (configuration not stated) | inactive: 3.76%
C[C@@H]1CN(C(=O)c2cccc(-c3ncc[nH]3)c2)CC[C@@]1(O)C1CCOCC1 | inactive: -13.6%
COc1cccc(-c2cccc(CCOc3cnc4c(ccn4CC(=O)O)c3)c2)c1 | inactive: -1.17% [at 57.5 µM]
COc1ccccc1C(=O)Nc1ccnn1C1CCN(C(=O)CCN)CC1 | inactive: 162%
CCOC(=O)C1CCN(C(=O)c2ccc3c(c2)N(CC)C2CCCCCN2C3=O)CC1 (configuration not stated) | inactive: 1.67%
CC1=C[C@@H](CN2CCN(CCO)CC2)[C@H](C(C)C)C[C@H]1Cc1nnc(-c2ccccc2F)o1 | inactive: 0.709%
CC(=O)N1CCCCC1c1nc(-c2ccccc2)n[nH]1 (configuration not stated) | inactive: -14.9%
O=C(Cc1ccc(Cl)cc1)N1CCC([C@@H]2CNC[C@H]2CO)CC1 | inactive: -11.5%
COC[C@H]1CCCN1Cc1nc(C2(O)CCN(Cc3ccccc3C(F)(F)F)CC2)cs1 | inactive: 3.93%
C[C@@H](NC(=O)N1CCOC[C@H]1c1ncc(-c2ccc(F)cc2)[nH]1)c1ccccc1 | inactive: 6.54% [at 57.5 µM]
C=CCN(C)C(=O)C[C@@H]1c2nc(NC(=O)c3cccs3)sc2C[C@@H]2[C@](C)(CO)[C@H](O)CC[C@]21C | inactive: 7.87%
COc1cccc(NC(=O)N[C@H](C)c2onc(-c3ccc(F)cc3)c2C(=O)O)c1 | inactive: -18.1% [at 57.5 µM]
COC(=O)C1=CN(CC(=O)NCc2cccc(OC)c2)S(=O)(=O)N=C1C | inactive: -0.101%
CC(C)C[C@@H]1N[C@H](C(=O)N2CCC(O)(c3ccccc3)CC2)Cc2cn(C)c3cccc1c23 | inactive: -1.88%
COc1ccc([C@H]2C[C@@H](O)[C@@H](O)[C@@H]2NC(=O)c2cc3ccccc3s2)cc1 | inactive: -1.9% [at 57.5 µM]
CC(C)(C)CC(=O)N1CC[C@H]2CC(=O)N(Cc3cccnc3)CC[C@H]2C1 | inactive: 2.57% [at 57.5 µM]

SMILES | activity, negative = inhibition
O=C(O)c1cccc(CN2CC(CNc3ccccc3)C3(C2)CN(c2ccccc2)C3)c1 (configuration not stated) | inactive: -5.65% [at 57.5 µM]
COc1ccc(CNC[C@H]2COCc3nc4cc(F)ccc4n32)cn1 | inactive: 5.58% [at 57.5 µM]
CC(=O)N1CCC(NC[C@H]2COCc3nc4ccc(C)cc4n32)CC1 | inactive: 0.467% [at 57.5 µM]
CCc1nc(C)c(C(=O)N2CCC(c3[nH]ncc3-c3ccccc3C)CC2)o1 | inactive: -1.6%
COc1ccc(-c2cnc(Nc3cccc(N[S+](C)(=O)[O-])c3)c3c2CCO3)cn1 | inactive: 4.16% [at 57.5 µM]
O=C(N[C@@H]1COCC[C@H]1OCc1ccccn1)c1cnc(C2CC2)nc1 | inactive: -0.82%
O=C(c1ccc(Cn2cccn2)o1)N1CCCC2(CCC(=O)N(C3CC3)C2)C1 (configuration not stated) | inactive: -4.73%
Cc1oc(C(O)c2ccccc2)nc1C(=O)Nc1ccncc1 (configuration not stated) | inactive: 1.71% [at 57.5 µM]
CCOCCn1nc(C)cc1C(=O)N1C[C@@H](C)[C@](O)(C2CC2)C1 | inactive: -0.533%
CC1(CCCCc2ccccc2)COc2ccc(C(=O)Nc3cccnc3)cc2N1 (configuration not stated) | inactive: 3.47% [at 57.5 µM]
NCc1cc(NC(=O)c2ccccn2)cc(C(=O)N2CC[C@H]3CNC[C@H]32)c1 | inactive: -3.78%
Cc1cccc(CN2CCCC3(CCN(Cc4cccc(O)c4)C3)C2)c1 (configuration not stated) | inactive: 4.09%
O=C(Cc1c[nH]c2ncc(-c3ccccc3)cc12)NC1CCOCC1 | inactive: 5.95% [at 57.5 µM]
CSCC(=O)N[C@H]1CCN2C(=O)c3cc(-c4ccccc4F)ccc3NC(=O)[C@H]12 | inactive: 3.31% [at 57.5 µM]
COc1ccc([C@@H](NC(=O)c2ccc3cccc(F)c3n2)C2CC(O)C2)cn1 (some centres not stated) | inactive: 6.06%
COc1ccc2c(c1)CCN=C2C[C@H]1CN(C(=O)c2cccs2)CC[C@H]1CC(=O)O | inactive: -6.85% [at 57.5 µM]
COc1ccc(C(=O)Nc2nc3c(s2)C[C@@H]2[C@](C)(CO)[C@H](O)CC[C@@]2(C)[C@@H]3CC(=O)NC2CCCC2)cc1 | inactive: -14.1%
CN1CCC(NC[C@H]2O[C@@H](CO)[C@@H](O)[C@H]2N2CCN(c3ncccn3)CC2)CC1 | inactive: -19.5%
CN(Cc1ccccc1)Cc1cn([C@H]2CO[C@H]3[C@@H]2OC[C@@H]3NCC2CCCCC2)nn1 | inactive: 2.96% [at 57.5 µM]
COc1c(F)cccc1C(=O)N1CCc2onc(-c3ccccc3F)c2C1 | inactive: 2.21%
COC(=O)[C@H](Cc1ccc(OC)cc1)NC(=O)[C@H]1CN(C(=O)c2cccnc2)CCN1S(C)(=O)=O | inactive: 13.5%
COc1cccc(N2CCN(C(=O)c3cn4ccnc(-c5ccccc5)c4n3)CC2)c1 | inactive: 21.4%
Fc1ccc(NC(=S)N[C@H]2CO[C@H]3[C@@H]2OC[C@@H]3n2nnnc2-c2ccc3c(c2)OCO3)cc1 | inactive: -4.19%

Two compounds picked at random from those above, as already listed:
SMILES | activity, negative = inhibition
CN(C)CCCNC(=O)C1CCCN(S(=O)(=O)c2ccccc2)CCC(=O)NCC1 (configuration not stated) | inactive: 3.76%
COc1c(F)cccc1C(=O)N1CCc2onc(-c3ccccc3F)c2C1 | inactive: 2.21%

Source: PubChem BioAssay AID1794844 (National Center for Advancing Translational Sciences (NCATS), 2023)
